# The other results are listed elsewhere or left out.
# What was measured:
# Assay in all cases: glycan array binding signal (z-score within array); higher = stronger binding
# Conditions in all cases: glycan notation: IUPAC condensed, linker removed
# [1] = molecular target: Fuc(a1-2)[GalNAc(a1-3)]Gal(b1-3)GlcNAc(b1-6)GalNAc
# How it was run: (§1)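 Glycan array data were curated from 3228 arrays in the Consortium for Functional Glycomics database and kept only where the protein sequence was available. Glycan names were converted to IUPAC-condensed notation, and columns mapping to the same glycan were averaged. The binding signal is a within-array Z-score, averaged across arrays of the same protein sequence at different concentrations or buffers and across linkers. Negative Z-scores can be read as non-binding.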
# [2] = molecular target: Fuc(a1-2)[GalNAc(a1-3)]Gal(b1-4)Glc
# How it was run: as §1
# [3] = molecular target: Fuc(a1-2)[GalNAc(a1-3)]Gal(b1-4)GlcNAc
# How it was run: as §1
# [4] = molecular target: Fuc(a1-2)[GalNAc(a1-3)]Gal(b1-4)GlcNAc(b1-2)Man
# How it was run: as §1
# [5] = molecular target: Fuc(a1-2)[GalNAc(a1-3)]Gal(b1-4)GlcNAc(b1-2)Man(a1-3)[Fuc(a1-2)[GalNAc(a1-3)]Gal(b1-4)GlcNAc(b1-2)Man(a1-6)]Man(b1-4)GlcNAc(b1-4)GlcNAc
# How it was run: as §1
# [6] = molecular target: Fuc(a1-2)[GalNAc(a1-3)]Gal(b1-4)GlcNAc(b1-2)Man(a1-3)[Fuc(a1-2)[GalNAc(a1-3)]Gal(b1-4)GlcNAc(b1-2)Man(a1-6)]Man(b1-4)GlcNAc(b1-4)[Fuc(a1-6)]GlcNAc
# How it was run: as §1
# [7] = molecular target: Fuc(a1-2)[GalNAc(a1-3)]Gal(b1-4)GlcNAc(b1-3)Gal(b1-4)GlcNAc
# How it was run: as §1
# [8] = molecular target: Fuc(a1-2)[GalNAc(a1-3)]Gal(b1-4)GlcNAc(b1-3)Gal(b1-4)GlcNAc(b1-3)Gal(b1-4)GlcNAc
# How it was run: as §1
# [9] = molecular target: Fuc(a1-2)[GalNAc(a1-3)]Gal(b1-4)GlcNAc(b1-3)GalNAc
# How it was run: as §1
# [10] = molecular target: Fuc(a1-2)[GalNAc(a1-3)]Gal(b1-4)GlcNAc(b1-3)[Fuc(a1-2)[GalNAc(a1-3)]Gal(b1-4)GlcNAc(b1-6)]GalNAc
# How it was run: as §1
# [11] = molecular target: Fuc(a1-2)[GalNAc(a1-3)]Gal(b1-4)GlcNAc(b1-6)GalNAc
# How it was run: as §1
# [12] = molecular target: Fuc(a1-2)[GalNAc(a1-3)]Gal(b1-4)[Fuc(a1-3)]GlcNAc
# How it was run: as §1
# [13] = molecular target: Fuc(a1-2)[GalNAc(a1-3)]Gal(b1-4)[Fuc(a1-3)]GlcNAc(b1-3)GalNAc
# How it was run: as §1
# [14] = molecular target: Fuc(a1-2)[GalNAc(a1-4)]Gal(b1-4)GlcNAc
# How it was run: as §1
# [15] = molecular target: Fuc(a1-2)[GalNAc(b1-3)]Gal
# How it was run: as §1
# Fuc(a1-3)GlcNAc = molecular target: Fuc(a1-3)GlcNAc
# How it was run: as §1
# [16] = molecular target: Fuc(a1-3)[Gal(b1-4)]Glc6S
# How it was run: as §1
# [17] = molecular target: Fuc(a1-3)[Gal(b1-4)]GlcNAc
# How it was run: as §1
# [18] = molecular target: Fuc(a1-3)[Gal(b1-4)]GlcNAc(b1-2)Man
# How it was run: as §1
# [19] = molecular target: Fuc(a1-3)[Gal(b1-4)]GlcNAc(b1-2)Man(a1-3)[Fuc(a1-3)[Gal(b1-4)]GlcNAc(b1-2)Man(a1-6)]Man(b1-4)GlcNAc(b1-4)GlcNAc
# How it was run: as §1
# [20] = molecular target: Fuc(a1-3)[Gal(b1-4)]GlcNAc(b1-2)Man(a1-3)[Fuc(a1-3)[Gal(b1-4)]GlcNAc(b1-2)Man(a1-6)]Man(b1-4)GlcNAc(b1-4)[Fuc(a1-6)]GlcNAc
# How it was run: as §1
# [21] = molecular target: Fuc(a1-3)[Gal(b1-4)]GlcNAc(b1-3)Gal(b1-3)[Fuc(a1-4)]GlcNAc
# How it was run: as §1
# [22] = molecular target: Fuc(a1-3)[Gal(b1-4)]GlcNAc(b1-3)Gal(b1-4)[Fuc(a1-3)]GlcNAc
# How it was run: as §1
# [23] = molecular target: Fuc(a1-3)[Gal(b1-4)]GlcNAc(b1-3)Gal(b1-4)[Fuc(a1-3)]GlcNAc(b1-3)Gal(b1-4)[Fuc(a1-3)]GlcNAc
# How it was run: as §1
# [24] = molecular target: Fuc(a1-3)[Gal(b1-4)]GlcNAc(b1-3)GalNAc
# How it was run: as §1
# [25] = molecular target: Fuc(a1-3)[Gal(b1-4)]GlcNAc(b1-6)GalNAc
# How it was run: as §1
# [26] = molecular target: Fuc(a1-3)[Gal(b1-4)]GlcNAc(b1-6)[Gal(b1-3)GlcNAc(b1-3)]Gal(b1-4)Glc
# How it was run: as §1
# [27] = molecular target: Fuc(a1-3)[Gal(b1-4)]GlcNAc6S
# How it was run: as §1
# [28] = molecular target: Fuc(a1-3)[Gal3S(b1-4)]Glc
# How it was run: as §1
# [29] = molecular target: Fuc(a1-3)[Gal3S(b1-4)]GlcNAc
# How it was run: as §1
# [30] = molecular target: Fuc(a1-3)[Gal3S(b1-4)]GlcNAc6S
# How it was run: as §1
# [31] = molecular target: Fuc(a1-3)[GalNAc(b1-4)]GlcNAc
# How it was run: as §1
# [32] = molecular target: Fuc(a1-3)[GalNAc(b1-4)]GlcNAc6S
# How it was run: as §1
# Fuc(a1-4)GlcNAc = molecular target: Fuc(a1-4)GlcNAc
# How it was run: as §1
# Fuc(b1-3)GlcNAc = molecular target: Fuc(b1-3)GlcNAc
# How it was run: as §1
# Gal(a1-2)Gal = molecular target: Gal(a1-2)Gal
# How it was run: as §1
# Gal(a1-3)Gal = molecular target: Gal(a1-3)Gal
# How it was run: as §1
# Gal(a1-3)Gal(b1-3)GlcNAc = molecular target: Gal(a1-3)Gal(b1-3)GlcNAc
# How it was run: as §1
# [33] = molecular target: Gal(a1-3)Gal(b1-3)GlcNAc(b1-2)Man
# How it was run: as §1
# [34] = molecular target: Gal(a1-3)Gal(b1-3)GlcNAc(b1-2)Man(a1-3)[Gal(a1-3)Gal(b1-3)GlcNAc(b1-2)Man(a1-6)]Man(b1-4)GlcNAc(b1-4)GlcNAc
# How it was run: as §1
# [35] = molecular target: Gal(a1-3)Gal(b1-3)GlcNAc(b1-3)GalNAc
# How it was run: as §1
# [36] = molecular target: Gal(a1-3)Gal(b1-3)GlcNAc(b1-6)GalNAc
# How it was run: as §1
# [37] = molecular target: Gal(a1-3)Gal(b1-3)[Fuc(a1-4)]GlcNAc(b1-2)Man(a1-3)[Gal(a1-3)Gal(b1-3)[Fuc(a1-4)]GlcNAc(b1-2)Man(a1-6)]Man(b1-4)GlcNAc(b1-4)GlcNAc
# How it was run: as §1
# Gal(a1-3)Gal(b1-4)Glc = molecular target: Gal(a1-3)Gal(b1-4)Glc
# How it was run: as §1
# Gal(a1-3)Gal(b1-4)GlcNAc = molecular target: Gal(a1-3)Gal(b1-4)GlcNAc
# How it was run: as §1
binder,measurement,setting,value
ArathEULS3 TAP (Arabidopsis thaliana) (protein) IDENLYFQGGSMDEKTTGWRGGHVVEGLAGELEQLRARLEHHPQGQREPGGGGSLEITSLYKKAGFMEHHHQHHRHHQRDDGEDDRQSFGVPPPHVDAPPQPHGLYQSQPHFDPYAPTPQAPAPYRSETQFEPHAPPPYRSEPYFETPAPPPSFGHVSHVGHQSPNESYPPEHHRYGGYQQPSNSLLESHGDHSGVTHVAHHSSNQPQSSSGVYHKPDENRLPDNLAGLAGRATVKVYSKAEPNYNLTIRDGKVILAPADPSDEAQHWYKDEKYSTKVKDADGHPCFALVNKATGEAMKHSVGATHPVHLIRYVPDKLDESVLWTESKDFGDGYRTIRMVNNTRLNVDAYHGDSKSGGVRDGTTIVLWDWNKGDNQLWKIFPF,glycan array binding signal (z-score),[1],0.767
same,glycan array binding signal (z-score),[2],0.519
same,glycan array binding signal (z-score),[3],0.134
same,glycan array binding signal (z-score),[4],0.256
same,glycan array binding signal (z-score),[5],-0.159
same,glycan array binding signal (z-score),[6],-0.042
same,glycan array binding signal (z-score),[7],-0.5
same,glycan array binding signal (z-score),[8],0.025
same,glycan array binding signal (z-score),[9],0.319
same,glycan array binding signal (z-score),[10],0.358
same,glycan array binding signal (z-score),[11],-1.03
same,glycan array binding signal (z-score),[12],-1.21
same,glycan array binding signal (z-score),[13],0.599
same,glycan array binding signal (z-score),[14],-0.499
same,glycan array binding signal (z-score),[15],-0.192
same,glycan array binding signal (z-score),Fuc(a1-3)GlcNAc,1.42
same,glycan array binding signal (z-score),[16],2.06
same,glycan array binding signal (z-score),[17],0.584
same,glycan array binding signal (z-score),[18],1.37
same,glycan array binding signal (z-score),[19],-0.853
same,glycan array binding signal (z-score),[20],2.05
same,glycan array binding signal (z-score),[21],-0.122
same,glycan array binding signal (z-score),[22],-0.59
same,glycan array binding signal (z-score),[23],-0.584
same,glycan array binding signal (z-score),[24],-0.36
same,glycan array binding signal (z-score),[25],-0.801
same,glycan array binding signal (z-score),[26],-0.107
same,glycan array binding signal (z-score),[27],2.6
same,glycan array binding signal (z-score),[28],-1.21
same,glycan array binding signal (z-score),[29],-0.593
same,glycan array binding signal (z-score),[30],0.828
same,glycan array binding signal (z-score),[31],-0.132
same,glycan array binding signal (z-score),[32],-1.06
same,glycan array binding signal (z-score),Fuc(a1-4)GlcNAc,0.629
same,glycan array binding signal (z-score),Fuc(b1-3)GlcNAc,-0.367
same,glycan array binding signal (z-score),Gal(a1-2)Gal,0.286
same,glycan array binding signal (z-score),Gal(a1-3)Gal,3.3
same,glycan array binding signal (z-score),Gal(a1-3)Gal(b1-3)GlcNAc,0.759
same,glycan array binding signal (z-score),[33],-0.176
same,glycan array binding signal (z-score),[34],0.528
same,glycan array binding signal (z-score),[35],0.549
same,glycan array binding signal (z-score),[36],-1.02
same,glycan array binding signal (z-score),[37],-0.432
same,glycan array binding signal (z-score),Gal(a1-3)Gal(b1-4)Glc,0.637
same,glycan array binding signal (z-score),Gal(a1-3)Gal(b1-4)GlcNAc,-0.865

# Some of the entries so far, as tab-separated lines:
binder	measurement	setting	value
ArathEULS3 TAP (Arabidopsis thaliana) (protein) IDENLYFQGGSMDEKTTGWRGGHVVEGLAGELEQLRARLEHHPQGQREPGGGGSLEITSLYKKAGFMEHHHQHHRHHQRDDGEDDRQSFGVPPPHVDAPPQPHGLYQSQPHFDPYAPTPQAPAPYRSETQFEPHAPPPYRSEPYFETPAPPPSFGHVSHVGHQSPNESYPPEHHRYGGYQQPSNSLLESHGDHSGVTHVAHHSSNQPQSSSGVYHKPDENRLPDNLAGLAGRATVKVYSKAEPNYNLTIRDGKVILAPADPSDEAQHWYKDEKYSTKVKDADGHPCFALVNKATGEAMKHSVGATHPVHLIRYVPDKLDESVLWTESKDFGDGYRTIRMVNNTRLNVDAYHGDSKSGGVRDGTTIVLWDWNKGDNQLWKIFPF	glycan array binding signal (z-score)	[7]	-0.5
same	glycan array binding signal (z-score)	[8]	0.025
same	glycan array binding signal (z-score)	[9]	0.319
same	glycan array binding signal (z-score)	[10]	0.358
same	glycan array binding signal (z-score)	[11]	-1.03
same	glycan array binding signal (z-score)	[12]	-1.21
same	glycan array binding signal (z-score)	[13]	0.599
same	glycan array binding signal (z-score)	[14]	-0.499
same	glycan array binding signal (z-score)	[15]	-0.192

# Reference: the supplement of paper PMC8728848
